This is an account of results in patent US9206186B2, “2-phenoxy- and 2-phenylsulfonamide derivatives with CCR3 antagonistic activity for the treatment of inflammatory or immunological disorders” (AXIKIN PHARMACEUTICALS, INC., priority 2003, dated 2015).

Sequences of proteins named here, by UniProt entry; tags and fusion partners are left off.
UniProt P51677, whole entry: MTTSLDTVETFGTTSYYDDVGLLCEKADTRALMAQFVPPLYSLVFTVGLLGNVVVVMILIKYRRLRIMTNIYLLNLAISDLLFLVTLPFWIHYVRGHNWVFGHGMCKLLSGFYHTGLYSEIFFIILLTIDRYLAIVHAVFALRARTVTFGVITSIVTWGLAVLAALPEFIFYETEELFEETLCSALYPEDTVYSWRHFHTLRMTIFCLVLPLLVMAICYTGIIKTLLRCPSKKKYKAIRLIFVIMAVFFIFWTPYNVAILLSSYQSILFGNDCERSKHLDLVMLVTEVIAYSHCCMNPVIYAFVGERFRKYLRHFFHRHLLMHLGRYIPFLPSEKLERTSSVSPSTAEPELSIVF

Molecules are shown by their SMILES. Structures were worked out from names or drawings and are uncertain. Bounds are passed on as bounds.

The target of assay [1] is T1, Human CCR3 (Homo sapiens, UniProt P51677). In words: Receptor binding assay (RBA), [125I]-eotaxin on human CCR3-transformed K562 cells. Particulars: read-out: Activity grade CCR3, compounds of about 40 to 90% purity, tested form: 2 HCl. As for the experimental part: [Determination of IC50 Values of Compounds in Receptor Binding Assay]
(§1) • Human CCR3-transformed K562 cells were used. The cloned CCR3 cDNA was constructed with pcDNA3 vector and transfected into a K562 cell line. The human CCR3-transformed K562 cells were maintained in RPMI-1640 (Cat.#22400-089, Life Technologies) supplemented with 10% FCS (Cat.#A-1115-L, Hyclone), 55 μM 2-mercaptoethanol (Cat.#21985-023, Life Technologies), 1 mM sodium pyruvate (Cat.#11360-070, Life Technologies), 100 units/ml of penicillin G and 100 μg/ml of streptomycin (Cat.#15140-122, Life Technologies), and 0.4 mg/ml of Geneticin (Cat.#10131-035, Life Technologies) (hereinafter called “culture medium”). Before the receptor binding assay, cells were pretreated with 5 mM sodium butyrate (Cat.#193-01522, Wako)-containing the culture medium (2×10^5 cells/ml) for 20-24 hours to increase the expression of CCR3. […] The non-specific binding was determined by parallel incubation in the presence of 500 nM of non-labeled eotaxin (Cat.#23209, Genzyme Techne). The radioactivities remained on the filter were measured by liquid scintillation counter (TopCount™, Packard) after an addition of 45 μl/well of scintillant (Microscint20, Cat.#6013621, Packard). The inhibition percent at each concentration of compound was calculated, and IC50 values were determined from the inhibition curve. […]

Assay [2] has as its target T1, Human CCR3. Briefly: Calcium mobilization assay (Ca2+), eotaxin-stimulated human CCR3-transformed K562 cells. Particulars: read-out: Activity grade IC50, compounds of about 40 to 90% purity, tested form: 2 HCl. As for the experimental part: as §1
On the technique in general: Calcium flux is commonly read through the fluorescence of an indicator in the cells.

Take `N#Cc1ccc(Oc2cc(Cl)cc(Cl)c2)c(S(=O)(=O)N2CCNCC2CN)c1` (centres unmarked): the IC50 in assay [1] and in assay [2] was below 100 nM throughout.
